Experiment: general procedure: Fmoc solid-phase peptide synthesis; Rink Amide MBHA LL; diisopropylcarbodiimide (DIC) / Oxyma
Conditions: whole synthesis, analytical RP-HPLC (Waters Acuity CSH C18), scale 0.13 mmol, TFA salt

Substance: Ac-GSPSIVTS αMeL DVPT Aib αMeL LQKILEQERAEKARQQAKEAAEILAQV-NH2
- final HPLC purity: >92.0%
